Results published in paper PMC11157767 (Molecular Cancer, 2024).
The source gives many values for each of these; only a part stands here.

System: TFG-MET allograft tumors
Test: RNA-sequencing, differential expression and GSEA of TFG-MET allograft tumors
Format: in vivo, mouse
Details: CAP.v.Veh
Experimental: Error bars display standard error of mean, statistical significance was determined using t-test analysis. (****;p<0.0001, ***;p<0.001, **;p<0.01, *;p<0.05). […] Each dot represents an individual replicate. Error bars display standard error of the mean.
Each dot represents one gene.

[1] = GOCC_ACTIN_BASED_CELL_PROJECTION
[2] = GOCC_AMPA_GLUTAMATE_RECEPTOR_COMPLEX
[3] = GOCC_ANAPHASE_PROMOTING_COMPLEX
[4] = GOCC_ANCHORED_COMPONENT_OF_EXTERNAL_SIDE_OF_PLASMA_MEMBRANE
[5] = GOCC_ANCHORED_COMPONENT_OF_PLASMA_MEMBRANE
[6] = GOCC_APICOLATERAL_PLASMA_MEMBRANE
[7] = GOCC_BASOLATERAL_PLASMA_MEMBRANE
[8] = GOCC_CARBOXY_TERMINAL_DOMAIN_PROTEIN_KINASE_COMPLEX

Q: How did the ES (GOCC_ACROSOMAL_MEMBRANE) turn out when `CNC(=O)c1ccc(-c2cnc3ncc(Cc4ccc5ncccc5c4)n3n2)cc1F` [Capmatinib] was run?
A: -0.4656

Q: What about the NES (GOCC_ACROSOMAL_MEMBRANE) of the same molecule?
A: -1.298

Q: And the ES (GOCC_ACROSOMAL_VESICLE)?
A: 0.2508

Q: What about the NES (GOCC_ACROSOMAL_VESICLE) of the same molecule?
A: 1.196

Q: What about the ES [1] of the same molecule?
A: -0.2482

Q: What about the NES [1] of the same molecule?
A: -1.099

Q: What about the ES (GOCC_ACTIN_CYTOSKELETON) of the same molecule?
A: -0.2142

Q: What about the NES (GOCC_ACTIN_CYTOSKELETON) of the same molecule?
A: -1.015

Q: What about the ES (GOCC_ACTIN_FILAMENT) of the same molecule?
A: -0.3022

Q: What about the NES (GOCC_ACTIN_FILAMENT) of the same molecule?
A: -1.254

Q: And the ES (GOCC_ACTIN_FILAMENT_BUNDLE)?
A: -0.3261

Q: And the NES (GOCC_ACTIN_FILAMENT_BUNDLE)?
A: -1.244

Q: And the ES (GOCC_ACTOMYOSIN)?
A: -0.3244

Q: What about the NES (GOCC_ACTOMYOSIN) of the same molecule?
A: -1.241

Q: And the ES (GOCC_ADHERENS_JUNCTION)?
A: -0.2581

Q: What about the NES (GOCC_ADHERENS_JUNCTION) of the same molecule?
A: -1.126

Q: And the ES (GOCC_AGGRESOME)?
A: -0.2349

Q: What about the NES (GOCC_AGGRESOME) of the same molecule?
A: -0.7784

Q: And the ES [2]?
A: -0.3086

Q: And the NES [2]?
A: -0.9733

Q: And the ES [3]?
A: -0.295

Q: And the NES [3]?
A: -0.8864

Q: And the ES [4]?
A: 0.3873

Q: And the NES [4]?
A: 1.216

Q: And the ES [5]?
A: 0.2561

Q: What about the NES [5] of the same molecule?
A: 1.138

Q: And the ES (GOCC_ANCHORING_JUNCTION)?
A: -0.2092

Q: And the NES (GOCC_ANCHORING_JUNCTION)?
A: -1.012

Q: And the ES (GOCC_APICAL_DENDRITE)?
A: 0.2719

Q: What about the NES (GOCC_APICAL_DENDRITE) of the same molecule?
A: 0.9188

Q: What about the ES (GOCC_APICAL_JUNCTION_COMPLEX) of the same molecule?
A: -0.2633

Q: What about the NES (GOCC_APICAL_JUNCTION_COMPLEX) of the same molecule?
A: -1.112

Q: And the NES (GOCC_APICAL_PART_OF_CELL)?
A: -1.058

Q: And the ES (GOCC_APICAL_PLASMA_MEMBRANE)?
A: -0.2102

Q: And the NES (GOCC_APICAL_PLASMA_MEMBRANE)?
A: -0.9645

Q: What about the ES [6] of the same molecule?
A: 0.3169

Q: What about the NES [6] of the same molecule?
A: 1.031

Q: And the ES (GOCC_ASTROCYTE_PROJECTION)?
A: -0.3925

Q: And the NES (GOCC_ASTROCYTE_PROJECTION)?
A: -1.114

Q: What about the ES (GOCC_AXON) of the same molecule?
A: 0.1438

Q: What about the NES (GOCC_AXON) of the same molecule?
A: 0.9135

Q: And the ES (GOCC_AXONAL_GROWTH_CONE)?
A: -0.3404

Q: What about the NES (GOCC_AXONAL_GROWTH_CONE) of the same molecule?
A: -1.093

Q: And the ES (GOCC_AXONEMAL_DYNEIN_COMPLEX)?
A: 0.3859

Q: What about the NES (GOCC_AXONEMAL_DYNEIN_COMPLEX) of the same molecule?
A: 1.304

Q: And the ES (GOCC_AXON_CYTOPLASM)?
A: 0.2547

Q: And the NES (GOCC_AXON_CYTOPLASM)?
A: 1.164

Q: What about the ES (GOCC_AXON_INITIAL_SEGMENT) of the same molecule?
A: 0.4283

Q: And the NES (GOCC_AXON_INITIAL_SEGMENT)?
A: 1.345

Q: And the ES (GOCC_A_BAND)?
A: 0.25

Q: And the NES (GOCC_A_BAND)?
A: 0.9628

Q: What about the ES (GOCC_BASAL_PART_OF_CELL) of the same molecule?
A: -0.1821

Q: What about the NES (GOCC_BASAL_PART_OF_CELL) of the same molecule?
A: -0.8247

Q: And the ES (GOCC_BASEMENT_MEMBRANE)?
A: -0.254

Q: And the NES (GOCC_BASEMENT_MEMBRANE)?
A: -1.016

Q: What about the ES [7] of the same molecule?
A: -0.1689

Q: What about the NES [7] of the same molecule?
A: -0.748

Q: And the ES (GOCC_BRUSH_BORDER)?
A: -0.2399

Q: And the NES (GOCC_BRUSH_BORDER)?
A: -0.9517

Q: What about the ES (GOCC_BRUSH_BORDER_MEMBRANE) of the same molecule?
A: -0.2961

Q: What about the NES (GOCC_BRUSH_BORDER_MEMBRANE) of the same molecule?
A: -1.077

Q: What about the ES (GOCC_CALCIUM_CHANNEL_COMPLEX) of the same molecule?
A: 0.2463

Q: What about the NES (GOCC_CALCIUM_CHANNEL_COMPLEX) of the same molecule?
A: 1.14

Q: What about the ES [8] of the same molecule?
A: -0.4463

Q: What about the NES [8] of the same molecule?
A: -1.3142

Q: What about the ES (GOCC_CATENIN_COMPLEX) of the same molecule?
A: -0.2945

Q: And the NES (GOCC_CATENIN_COMPLEX)?
A: -0.976

Q: And the ES (GOCC_CAVEOLA)?
A: -0.3204

Q: And the NES (GOCC_CAVEOLA)?
A: -1.246

Q: And the ES (GOCC_CELL_CELL_JUNCTION)?
A: -0.2145

Q: And the NES (GOCC_CELL_CELL_JUNCTION)?
A: -1.0148

Q: And the ES (GOCC_CELL_CORTEX)?
A: -0.1978

Q: What about the NES (GOCC_CELL_CORTEX) of the same molecule?
A: -0.9024

Q: What about the ES (GOCC_CELL_LEADING_EDGE) of the same molecule?
A: -0.2171

Q: And the NES (GOCC_CELL_LEADING_EDGE)?
A: -1.019

Q: What about the ES (GOCC_CELL_PROJECTION_MEMBRANE) of the same molecule?
A: -0.2083

Q: And the NES (GOCC_CELL_PROJECTION_MEMBRANE)?
A: -0.9603

Q: What about the ES (GOCC_CELL_SUBSTRATE_JUNCTION) of the same molecule?
A: -0.2431

Q: And the NES (GOCC_CELL_SUBSTRATE_JUNCTION)?
A: -1.147

Q: And the ES (GOCC_CENTRIOLE)?
A: -0.2881
